Source: PubChem BioAssay AID504834 (National Center for Advancing Translational Sciences (NCATS), 2011)
The whole screen tested about 320,000 compounds, of which about 22,000 (6.9%) were called active. Inconclusive means that the source gave no clear call. Such entries were picked first, then a sample of the others. Calls follow the shape of the dose curve; as a rule, active = well fitted inhibition curve with a large enough effect; inconclusive = small, poorly fitted or top-dose-only effect, or another doubt; inactive = no such curve, though single readings can be large or run the other way. Potencies of inconclusive entries are doubtful fits and often do not repeat.

Test: Primary qHTS for delayed death inhibitors of the malarial parasite plastid, 96 hour incubation
Conditions: P. falciparum luciferase reporter growth; series mostly up to 28.7 µM
Summary of the method: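 Readout is luminescence from an integrated firefly luciferase in P. falciparum. Red cells, 2% hematocrit and 0.05% parasitemia final, were cultured with compound through two parasite generations (96 hours) at 37 C, 5% CO2.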
Potency is read from the fitted curve at half-maximal effect.

Compound | Potency
O=S(=O)(c1ccc(Cl)cc1)c1nc(-c2ccco2)oc1N1CCCCC1 | inconclusive: 3.29 µM [inhibitor, full curve]
Cc1ccc(N=C2NC(=O)/C(=C/c3cccs3)S2)cc1C | inconclusive: 11.7 µM [inhibitor, single point]
Oc1ccc(-c2nc3ncccn3c2Nc2ccc3c(c2)OCO3)cc1 | inactive
COc1ccc(-c2cc(C(F)(F)F)nc(-n3ccnc3)n2)cc1 | inconclusive: 10.4 µM [inhibitor, partial curve, poor fit]
CCCOC(=O)CSC1=C(C#N)C(c2ccccc2Cl)CC(=O)N1 (stereo not drawn) | inconclusive: 1.31 µM [inhibitor, full curve, poor fit]
O=C(N/N=C/c1ccccn1)c1cccs1 | inconclusive: 18.5 µM [inhibitor, single point]
Cc1ccc(N=C2NC(=O)/C(=C/c3cccn3C)S2)c(C)c1 | active: 11.7 µM
C=C(C)CSc1nc2nc(C)cc(C)n2n1 | inactive
CCOC(=O)CSc1nsc(SCC(=O)OCC)c1C#N | inconclusive: 4.65 µM [inhibitor, single point]
Cc1ccc(S(=O)(=O)N2CCN(C(=O)CCCOc3ccc(Cl)cc3C)CC2)cc1 | inconclusive: 18.5 µM [inhibitor, partial curve, poor fit]
NS(=O)(=O)c1ccc(CCNC(=O)c2cccc([N+](=O)[O-])c2)cc1 | inactive
Cc1sc2ncnc(N3CCC(C(=O)Nc4ccccc4C(C)(C)C)CC3)c2c1C | inconclusive: 1.31 µM [inhibitor, full curve, poor fit]
CCCCN(C(=O)Cc1coc2cc(C)c(C)cc12)c1c(N)n(Cc2ccccc2)c(=O)[nH]c1=O | inconclusive: 4.15 µM [inhibitor, partial curve, poor fit]
COc1ccc(S(=O)(=O)N2CCOC2CNC(=O)C(=O)NCCN(C)C)cc1 (stereo not drawn) | inconclusive: 18.5 µM [inhibitor, single point]
CCOc1ccc(NCc2cc3c(C(C)(C)C)nn(-c4ccccc4)c3[nH]c2=O)cc1 | inconclusive: 6.57 µM [inhibitor, partial curve, poor fit]
O=S(=O)(c1ccc(Br)cc1)N1CCN(c2ccc3nnc(-c4ccccc4)n3n2)CC1 | inconclusive: 7.38 µM [inhibitor, single point]
CCN(c1ccccc1)c1nc(=O)c2cccnc2s1 | inconclusive: 9.28 µM [inhibitor, partial curve, poor fit]
Cc1cccc(Nc2nc(CC(=O)O)cs2)c1 | inconclusive: 18.5 µM [inhibitor, single point]
S=C(NCCc1c[nH]c2ccccc12)NC1CCCC1 | inconclusive: 18.5 µM [inhibitor, single point]
COc1ccc(CC(=O)OCC(=O)Nc2ccc3c(c2)OCO3)cc1 | inactive
Cc1cccc(Nc2ncnc3onc(-c4ccc(F)cc4)c23)c1C | inconclusive: 1.65 µM [inhibitor, partial curve, poor fit]
CC(C)OC(=O)CN1C(=O)c2ccccc2C1=O | active: 7.38 µM
C=CCn1cccc(C(=O)Nc2cc(OC)ccc2OC)c1=O | inconclusive: 1.47 µM [inhibitor, partial curve, poor fit]

Compound | Potency
O=C(NC1=NCCS1)c1ccc(Br)s1 | inactive
CCCN1CCN(CCCNC(=O)Cn2nc(C)n3c(cc4cc(OC)ccc43)c2=O)CC1 | inactive
Cc1ccccc1C(=O)NNS(=O)(=O)c1cccc([N+](=O)[O-])c1 | inactive
COc1ccc(NC(=O)CN(C)S(=O)(=O)c2ccc(Cl)cc2)cc1Cl | inactive
CCOC(=O)C1(Cc2cccc(OC)c2)CCN(C(C)COC)CC1 (stereo not drawn) | inconclusive: 18.5 µM [inhibitor, single point]
COc1ccccc1Nc1nnc(SCc2nnc(-c3cc(OC)c(OC)c(OC)c3)o2)s1 | inconclusive: 8.28 µM [inhibitor, partial curve, poor fit]
CCOC(=O)c1ccc(-c2ccc3c(c2)CCC3)nc1C | inactive
COc1cc(OC)c(OC)cc1C=NCC1(c2ccccc2)CCCC1 | inconclusive: 0.0041 µM [inhibitor, full curve]
CN(Cc1cccs1)C(=O)c1cccc(S(=O)(=O)N2CCCCCC2)c1 | inconclusive: 13.1 µM [inhibitor, single point]
CN1CC(=O)N(CC(=O)Nc2cccc(S(=O)(=O)N3CCOCC3)c2)C1=O | inconclusive: 14.7 µM [inhibitor, single point]
COc1cccc(/C=C2\SC(=S)N(CCC(=O)Nc3ccc(O)cc3)C2=O)c1 | inconclusive: 6.57 µM [inhibitor, partial curve, poor fit]
COc1ccccc1OCC(=O)NCCSCc1ccc(Cl)cc1 | inactive
COc1cccc(CCNC(=O)COc2cccc3c2OC(C)(C)C3)c1 | inconclusive: 7.38 µM [inhibitor, partial curve]
COC(=O)C1=C(C)NC(C)=C(C(=O)OC)C1C(=O)OC(C)C(=O)c1ccccc1 (stereo not drawn) | inconclusive: 16.5 µM [inhibitor, single point]
O=[N+]([O-])c1ccc(Cl)c(/C=N/n2c(C3CCCCC3)n[nH]c2=S)c1 | inconclusive: 0.465 µM [inhibitor, full curve, poor fit]
CN(CCCS(=O)(=O)[O-])c1ccc(/C=C/c2ccc3ccccc3[n+]2C)cc1 | inconclusive: 5.86 µM [inhibitor, partial curve]
N#CC1=C(N)C2=CCCC[C@H]2[C@H](c2cccc(F)c2)C1(C#N)C#N | inconclusive: 16.5 µM [inhibitor, single point]
CC1(C)C2CCC(C2)C1C/C=N/NC(N)=S (stereo not drawn) | inactive
COc1cc(OC)cc(C(=O)NCC2CCCN(C(=O)c3csc(C)n3)C2)c1 (stereo not drawn) | inconclusive: 4.15 µM [inhibitor, single point]
CCN1CCN(c2ccc(S(=O)(=O)N3CCOCC3)cc2NC(=O)/C=C/c2cccc(OC)c2OC)CC1 | inconclusive: 11.7 µM [inhibitor, partial curve]
COC(=O)C1=C(C)OC(N)=C(C#N)C1c1ccco1 (stereo not drawn) | inconclusive: 11.7 µM [inhibitor, single point]
CCOC(=O)CC(c1ccc([N+](=O)[O-])cc1)n1c(C)ccc1C (stereo not drawn) | inconclusive: 9.28 µM [inhibitor, partial curve, poor fit]
CC(C)C(c1nnnn1Cc1ccc(F)cc1)N1CCN(Cc2ccc3c(c2)OCO3)CC1 (stereo not drawn) | inconclusive: 18.5 µM [inhibitor, single point]

Taken from above:
In Potency, COc1cc(OC)cc(C(=O)NCC2CCCN(C(=O)c3csc(C)n3)C2)c1 (stereo not drawn) has the entry inconclusive: 4.15 µM [inhibitor, single point]
In Potency, CN(Cc1cccs1)C(=O)c1cccc(S(=O)(=O)N2CCCCCC2)c1 has the entry inconclusive: 13.1 µM [inhibitor, single point]
In Potency, CCN1CCN(c2ccc(S(=O)(=O)N3CCOCC3)cc2NC(=O)/C=C/c2cccc(OC)c2OC)CC1 has the entry inconclusive: 11.7 µM [inhibitor, partial curve]
In Potency, CCN(c1ccccc1)c1nc(=O)c2cccnc2s1 has the entry inconclusive: 9.28 µM [inhibitor, partial curve, poor fit]
In Potency, Cc1cccc(Nc2ncnc3onc(-c4ccc(F)cc4)c23)c1C has the entry inconclusive: 1.65 µM [inhibitor, partial curve, poor fit]
In Potency, COc1cccc(CCNC(=O)COc2cccc3c2OC(C)(C)C3)c1 has the entry inconclusive: 7.38 µM [inhibitor, partial curve]

(list continues)

Compound | Potency
COc1ccc(NC(=O)/C(Cl)=C(/Cl)S(=O)(=O)Cc2ccccc2)cn1 | inactive
CC(C)C[C@@]12C(=O)N(c3ccc(Br)cc3)C(=O)N1[C@H](c1ccc(Br)cc1)[C@@H]1C(=O)N(C(C)(C)C)C(=O)[C@@H]12 | inconclusive: 3.7 µM [inhibitor, full curve, poor fit]
O=C(Nc1ccc([N+](=O)[O-])cc1)N1CCCCC1 | active: 8.28 µM
CCN(CC)S(=O)(=O)c1ccc(-c2nnc(SCC(=O)N3CCOCC3)o2)cc1 | active: 8.28 µM
O=C(Nc1ccnn1C1CCN(CC2CC=CCC2)CC1)c1ccccc1Cl (stereo not drawn) | inactive
O=C(Cn1nc([N+](=O)[O-])nc1Br)NC1CCCCC1 | inactive
Cc1c(Cl)cccc1NC(=S)Nc1ccc2[nH]c(=O)[nH]c2c1 | inactive
Cc1cc2nc(-c3ccc(SCC(=O)N4CCN(C(=O)c5ccco5)CC4)nc3)[nH]c2cc1C | inactive
COC(=O)c1cc(NC(=O)c2cccs2)ccc1N1CCOCC1 | inconclusive: 18.5 µM [inhibitor, single point]
O=C(c1cn(Cc2ccccc2)nc1-c1cccnc1)N1CCN(Cc2ccccc2)CC1 | inconclusive: 9.28 µM [inhibitor, partial curve]
O=S(=O)(c1cccs1)N1CCN(c2ccc(O)cc2)CC1 | inconclusive: 14.7 µM [inhibitor, single point]
COc1ccc(Cl)cc1NC(=O)CSc1nnc(C2CC2)n1N | inactive
CCCCOc1ccc(C(=O)Oc2cc(C)[nH]c(=O)c2[N+](=O)[O-])cc1 | inactive
Cc1ccc(CNC(=O)C(=O)NCC2CCCN2S(=O)(=O)c2cccs2)cc1 (stereo not drawn) | inconclusive: 0.0033 µM [inhibitor, full curve, poor fit]
O=S(=O)(c1ccc(Cl)cc1)n1cnc2ccccc21 | inconclusive: 10.4 µM [inhibitor, partial curve, poor fit]
Cc1noc(C)c1COc1ccc(C(=O)N2CCN(c3ccccn3)CC2)cc1 | inactive
CCC(=O)N1N=C(c2ccccc2)CC1c1ccccc1 (stereo not drawn) | inconclusive: 14.7 µM [inhibitor, single point]
COc1ccc(OCC(O)Cn2c(N3CCCCC3)nc3c2c(=O)[nH]c(=O)n3C)cc1 (stereo not drawn) | inconclusive: 18.5 µM [inhibitor, single point]
CC(=O)n1cc([C@H]2C=C(C(=O)NCc3ccccc3)O[C@@H](OCCCCO)C2)c2ccccc21 | inconclusive: 1.31 µM [inhibitor, full curve]
Cc1occc1C(=O)NNS(=O)(=O)c1ccc(Cl)cc1 | inconclusive: 0.0828 µM [inhibitor, full curve, poor fit]
COc1ccc2c(c1)C(SCC(=O)NCc1ccccc1)CC(C)(C)O2 (stereo not drawn) | inconclusive: 18.5 µM [inhibitor, single point]
O=C(Nc1cc(C(F)(F)F)ccc1N1CCCC1)c1cccnc1 | inconclusive: 16.5 µM [inhibitor, partial curve, poor fit]
